Publication PMC10432399
No constants are given. Whether binding was seen depends on the method and setting. For some assays here: In cells and extracts the contact can be indirect. Some binding calls cover weakened binding; strength is not graded here. For some assays here: Tags and fused reporters may be left off the sequences shown. Values belong to the molecule of their own block, whether it stands above or below them.

Chains of the proteins cited; added tags and fusions are not shown. Residues count along the entry.
UniProt P05106, residues 742-788: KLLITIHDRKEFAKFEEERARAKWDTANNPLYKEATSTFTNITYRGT

How the values were obtained:
Histidine-tagged Gα13 = molecular target: T1, Histidine-tagged Gα13 (UniProt P27601); test: ELISA; His-Gα13 (5 μg/mL) coated on 96-well microtiter plates; GST-β3CD, GST, mP6 or control peptide added for 1 h at room temperature in Tris-NP40 buffer (50 mM Tris, 10 mM MgCl2, 150 mM NaCl, 1% NP-40), then 0.25 μg/mL GST-RGS for 2 h; bound RGS detected with anti-p115 RhoGEF; both purified
T1 sequence: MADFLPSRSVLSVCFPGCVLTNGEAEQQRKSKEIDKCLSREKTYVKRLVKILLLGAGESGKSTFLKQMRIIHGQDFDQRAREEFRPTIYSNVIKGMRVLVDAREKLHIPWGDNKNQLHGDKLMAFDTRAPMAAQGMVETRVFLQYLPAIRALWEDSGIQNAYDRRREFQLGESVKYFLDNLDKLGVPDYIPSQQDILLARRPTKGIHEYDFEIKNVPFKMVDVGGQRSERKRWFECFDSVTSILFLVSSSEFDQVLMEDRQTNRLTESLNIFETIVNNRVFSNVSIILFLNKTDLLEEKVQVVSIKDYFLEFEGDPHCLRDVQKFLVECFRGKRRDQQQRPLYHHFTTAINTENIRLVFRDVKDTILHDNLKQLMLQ

[1] = molecular target: T2, p115RhoGEF (endogenous, mouse platelets) (mouse (endogenous in platelets)) (UniProt Q61210); test: co-IP; washed mouse platelets (WT or β3-/-; pre-treated with aspirin 500 μM and RGDS or RGES 2 mM, or Eptifibatide 40 μM or vehicle), resting or thrombin-stimulated; lysed in HEPES-NP40 buffer; IP with anti-p115RhoGEF or IgG, blot for Gα13; low level in resting platelets, enhanced by thrombin, almost 3-fold higher in β3-/- platelets
T2 sequence: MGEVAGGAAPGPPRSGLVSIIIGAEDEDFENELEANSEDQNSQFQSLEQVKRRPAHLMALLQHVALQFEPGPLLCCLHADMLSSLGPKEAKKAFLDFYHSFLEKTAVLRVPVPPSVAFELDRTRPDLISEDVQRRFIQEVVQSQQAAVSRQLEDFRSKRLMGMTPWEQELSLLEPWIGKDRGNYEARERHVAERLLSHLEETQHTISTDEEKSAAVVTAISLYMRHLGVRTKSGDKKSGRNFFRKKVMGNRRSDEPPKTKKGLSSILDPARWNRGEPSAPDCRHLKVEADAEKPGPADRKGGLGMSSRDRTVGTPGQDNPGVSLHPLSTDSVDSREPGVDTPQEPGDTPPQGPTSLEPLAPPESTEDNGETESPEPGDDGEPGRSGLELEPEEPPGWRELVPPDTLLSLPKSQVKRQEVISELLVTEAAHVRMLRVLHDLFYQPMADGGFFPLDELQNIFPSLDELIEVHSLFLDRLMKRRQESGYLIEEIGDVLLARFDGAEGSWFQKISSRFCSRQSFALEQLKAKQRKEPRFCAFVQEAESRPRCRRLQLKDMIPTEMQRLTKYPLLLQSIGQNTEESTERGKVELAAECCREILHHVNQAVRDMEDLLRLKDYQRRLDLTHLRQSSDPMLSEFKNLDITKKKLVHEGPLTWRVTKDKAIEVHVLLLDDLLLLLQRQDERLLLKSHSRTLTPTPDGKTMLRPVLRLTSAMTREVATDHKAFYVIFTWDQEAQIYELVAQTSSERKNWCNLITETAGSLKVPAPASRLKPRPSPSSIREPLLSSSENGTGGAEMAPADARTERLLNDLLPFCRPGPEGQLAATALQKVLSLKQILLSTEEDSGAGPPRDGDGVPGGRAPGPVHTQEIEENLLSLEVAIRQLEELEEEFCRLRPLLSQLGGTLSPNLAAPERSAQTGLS

[2] = molecular target: T2, p115RhoGEF (endogenous, mouse platelets) (mouse (endogenous in platelets)); test: co-IP; wild-type mouse platelets pre-treated with control peptide (myr-FAAAKL) or mP6 (200 μM, DMSO) for 3 min, thrombin 0.03 U/mL for 10 seconds; IP with anti-p115RhoGEF, blot for Gα13
[3] = molecular target: T3, Gα13 (endogenous, mouse platelets) (mouse (endogenous in platelets)) (UniProt P27601); test: co-IP; synthetic mP6 (200 μM, DMSO) added to wild-type mouse platelets before thrombin; read out as loss of Gα13 from the p115RhoGEF immunoprecipitate; only the binder purified
T3 sequence: T1 sequence

binding (Histidine-tagged Gα13): binds
Molecule: GST-β3 cytoplasmic domain fusion protein (from UniProt P05106 742-788) (domain or fragment)

binding [1]: binds
binding [2]: binds
B1: Gα13 (endogenous, mouse platelets) (protein, UniProt P27601 1-377)
chain: T1 sequence

binding (Histidine-tagged Gα13): binds
binding [3]: binds
Molecule: FEEERA (N-terminal myristoyl (Myr-)) [mP6 (Myr-FEEERA)]
